Measured values from PubChem BioAssay AID2551 (National Center for Advancing Translational Sciences (NCATS), 2010).
Hit rate of the full screen: of about 310,000 compounds, about 17,000 (5.5%) were called active. Inconclusive results, whose numbers are uncertain, are shown with a selection of clear calls. Calls follow the shape of the dose curve; as a rule, active = well fitted inhibition curve with a large enough effect; inconclusive = small, poorly fitted or top-dose-only effect, or effect the other way; inactive = no such curve, though single readings can be large or run the other way. Potencies beside an inconclusive call are fits to weak or partial responses and may not hold up.

Chains of the proteins cited; added tags and fusions are not shown. Lines headed by an entry give the natural chain unless they say otherwise; changes in a name come on top.
UniProt P51450: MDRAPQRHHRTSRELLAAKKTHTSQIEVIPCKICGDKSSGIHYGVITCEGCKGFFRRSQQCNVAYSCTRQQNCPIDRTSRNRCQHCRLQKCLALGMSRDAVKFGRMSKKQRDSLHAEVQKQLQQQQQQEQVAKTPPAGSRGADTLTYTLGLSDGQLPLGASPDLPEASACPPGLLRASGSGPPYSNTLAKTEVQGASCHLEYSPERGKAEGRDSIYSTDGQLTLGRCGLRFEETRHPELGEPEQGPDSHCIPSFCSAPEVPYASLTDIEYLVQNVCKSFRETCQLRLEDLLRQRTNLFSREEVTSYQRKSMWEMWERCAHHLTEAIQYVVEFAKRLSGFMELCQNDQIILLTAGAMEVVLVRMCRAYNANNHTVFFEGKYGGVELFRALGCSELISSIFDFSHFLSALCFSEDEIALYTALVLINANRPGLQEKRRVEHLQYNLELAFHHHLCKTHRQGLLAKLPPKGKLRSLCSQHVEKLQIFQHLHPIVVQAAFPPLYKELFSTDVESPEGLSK

molecular target: Nuclear receptor ROR-gamma (Mus musculus) (UniProt P51450); test: qHTS for inhibitors of ROR gamma transcriptional activity; settings: Drosophila S2 Gal4-RORgamma UAS-luciferase reporter, 20 h; activity change, negative = inhibition: at 53.6 µM (top of the series); also: nearly all actives have a fitted effect of over 60% in size
Procedure, shortened: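 Luminescence from a UAS-regulated Photinus luciferase reporter in stably transfected Drosophila Schneider cells is measured; decreased signal marks ROR gamma inhibition. Fusion expression is induced by 700 uM copper sulfate for 20 hr.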
% is scaled to controls: 0 for no effect and ±100 for the full control effect; potency is read from the fitted curve at half-maximal effect.

| SMILES | Potency | activity change, negative = inhibition |
| --- | --- | --- |
| CC1CCC2C(=O)N(c3ccc(Cc4ccncc4)cc3)C(=O)C2C1 (configuration not stated) | active: 11.2 µM |  |
| Cc1nnsc1C(=O)N1CCC(C(=O)c2ccccc2)CC1 | inactive |  |
| CCOc1ccccc1NC(=O)C1CCC(CNc2c(N3CCOCC3)c(=O)c2=O)CC1 (configuration not stated) | inconclusive: 8.91 µM [inhibitor, partial curve] |  |
| N#C/C(=N\Nc1ccc(S(=O)(=O)N2CCOCC2)cc1)C(N)=S | inconclusive: 17.8 µM [inhibitor, single point] |  |
| O=C(CN1CCN(S(=O)(=O)N2CCCCCC2)CC1)Nc1ccc(Br)cc1 | inconclusive: 11.2 µM [activator, single point] |  |
| CCN(CC)c1ccc(C=C(c2nnnn2-c2ccc(C)cc2)c2nnnn2-c2ccc(C)cc2)cc1 | inconclusive: 2.82 µM [inhibitor, single point] |  |
| Cc1ccccc1Oc1nc(-c2ccccn2)nc2ccccc12 | active: 0.316 µM |  |
| NNC(=O)c1nc(-c2cccc(-n3cccc3)c2)no1 | inconclusive: 25.1 µM [inhibitor, single point] |  |
| CCOC(=O)c1ccc(NC(=O)c2cc(C)nc3ccccc23)cc1 | inconclusive: 0.282 µM [inhibitor, single point] |  |
| O=C(N/N=C/C(Cl)=C/c1ccccc1)c1ccncc1 | inactive |  |
| C#CCn1c(=NC(=O)c2ccc(Br)s2)sc2cccc(OC)c21 | inconclusive: 14.1 µM [inhibitor, partial curve, poor fit] |  |
| O=C(Nc1nc2ccc(F)cc2s1)C1=NN(c2ccccc2)C(=O)CC1 | inconclusive: 35.5 µM [inhibitor, single point] |  |
| CN(C)c1cc[n+](CC(=O)Nc2cccc([N+](=O)[O-])c2)cc1 | inactive |  |
| CCCCNC(=O)[C@H]1N2C(=O)c3c(ccc(OC)c3OC)C2SC1(C)C (some centres not stated) | inconclusive: 11.2 µM [activator, single point] |  |
| CC1S/C(=N/N=C/c2ccco2)N(Cc2ccccc2)C1=O (configuration not stated) | inactive |  |
| CCC(C)(C)n1nnnc1CN(Cc1ccco1)Cc1cc2cc3c(cc2[nH]c1=O)OCO3 | inactive |  |
| O=C(Nc1cccs1)Nc1c(F)cc(F)cc1Br |  | inactive: -24.4% [at 10 µM] |
| CCOC(=O)C1(O)CC(C)=NN1C(=O)c1cccc(Cl)c1 (configuration not stated) | inconclusive: 35.5 µM [inhibitor, single point] |  |
| CCOC(=O)CNc1nc(C(C)(C)C)nc2c1nnn2Cc1ccccc1 | inconclusive: 35.5 µM [activator, single point] |  |
| Clc1cccc(N/N=C/c2ccncc2)c1 | inconclusive: 14.1 µM [activator, partial curve] |  |
| O=C(c1cccc(F)c1)N1CCC(O)(c2cccnc2)CC1 | inactive |  |
| COCCNC(=S)NC1CC2CCCC(C1)N2Cc1cccs1 (configuration not stated) | inconclusive: 20 µM [inhibitor, single point] |  |
| CN(c1ccc(C(=O)Nc2cccc(O)c2)cc1)S(=O)(=O)c1ccccc1 | inconclusive: 7.08 µM [activator, partial curve] |  |
| Cc1ccc(/C=N/n2cc(-c3ccccc3)[nH]c2=S)s1 | active: 0.447 µM |  |

| SMILES | Potency | activity change, negative = inhibition |
| --- | --- | --- |
| CC(C)CNS(=O)(=O)c1ccc(CCC(=O)N2CCC(C(N)=O)CC2)cc1 | inactive |  |
| COc1ccccc1OCC(=O)Nc1oc(-c2ccccc2)c(-c2ccccc2)c1C#N | inactive |  |
| Cc1c(C(=O)Nc2ccc(F)cc2)oc2ccc(S(=O)(=O)N3CCCC3)cc12 | inconclusive: 17.8 µM [activator, single point] |  |
| CCCCc1c(C)[nH]c2nc3ccccc3n2c1=O | inconclusive: 35.5 µM [inhibitor, single point] |  |
| CCOC(=O)C1CCN(C(=O)CNC(=O)c2nn(-c3ccc(OC)c(OC)c3)c(=O)c3ccccc23)CC1 | inactive |  |
| CCCC[C@@H]1C[C@H]1[C@@H](NC(=O)c1ccco1)c1ccc(Cl)cc1 | inconclusive: 14.1 µM [activator, single point] |  |
| COc1ccc(N2CCC(CNC(=S)Nc3c(C)cc(C)cc3C)C2)cc1 (configuration not stated) | active: 1.41 µM |  |
| CCOC(=O)N1CCC(NC(=O)c2ccc3c(c2)sc2nc(-c4ccccc4)cn23)CC1 | inconclusive: 2.24 µM [activator, full curve] |  |
| O=C(NC12CC3CC(CC(C3)C1)C2)N1CCN(C(=O)c2ccco2)CC1 | inconclusive: 10 µM [activator, partial curve] |  |
| Cc1ccc(OCC(=O)Nc2ccc(N3CCN(C(=O)c4ccco4)CC3)cc2)cc1 | inactive |  |
| Cc1cc(NC(=O)CSc2nnc(-c3ccccc3)n2Cc2ccco2)no1 | inconclusive: 20 µM [activator, single point] |  |
| COc1cccc(/C=N/n2c(COc3ccccc3)n[nH]c2=S)c1O | active: 12.6 µM |  |
| CC(=O)c1c(NCCc2ccccc2)nc(=S)n(-c2ccccc2)c1C | inconclusive: 17.8 µM [inhibitor, single point] |  |
| CCCNC(=S)N1CCC(C(=O)c2ccc(Cl)cc2)CC1 |  | inactive: -11% [at 1.91 µM] |
| O=c1c2ccccc2c(C=Nc2cccc(O)c2)c(O)n1-c1ccc2c(c1)OCO2 | inconclusive: 35.5 µM [inhibitor, single point] |  |
| CC(C)(C)c1csc(N/N=C/c2ccc(O)cc2)n1 | active: 0.562 µM |  |
| Cc1nn(-c2ccccc2)c(C)c1-c1cc(C(=O)N/N=C/c2ccc(O)cc2)[nH]n1 | inconclusive: 2.51 µM [activator, single point] |  |
| O=Cc1ccc(C(=O)O)cc1 | inactive |  |
| Cc1cc(-c2ccc(C(C)C)c(S(=O)(=O)N3CCN(c4ccccn4)CC3)c2)on1 | inactive |  |
| CCCCCCn1c(N2CCCC2)nc2c1c(=O)n(C)c(=O)n2C | inconclusive: 11.2 µM [activator, partial curve] |  |
| COc1cc([N+](=O)[O-])cc(/C=N\NC(=O)C2COc3ccccc3O2)c1O (configuration not stated) | active: 0.447 µM |  |
| O=C(Nc1ccccc1)OCCOc1ccccc1 | inconclusive: 1.26 µM [activator, partial curve] |  |
| CCCCN(CCCC)c1ncnc2nc[nH]c12 | inconclusive: 11.2 µM [inhibitor, partial curve, poor fit] |  |

One compound at a time, as listed above:
`CC(C)(C)c1csc(N/N=C/c2ccc(O)cc2)n1` in the list: Potency: active: 0.562 µM
`CC(=O)c1c(NCCc2ccccc2)nc(=S)n(-c2ccccc2)c1C` in the list: Potency: inconclusive: 17.8 µM [inhibitor, single point]
